PMC11638004, “Phosphorylation of auxin signaling repressor IAA8 by heat-responsive MPKs causes defective flower development” (Plant Physiology, 2024)
These are yes or no findings as the source states them, for the method shown. For some assays here: In cells and extracts the contact can be indirect. Some entries that bind do so weakly or less than the wild type. Sequences can lack the tags named with a protein. Values belong to the molecule of their own block, whether it stands above or below them.

The chains behind the UniProt entries cited, without tags or fusion partners.
UniProt Q39026: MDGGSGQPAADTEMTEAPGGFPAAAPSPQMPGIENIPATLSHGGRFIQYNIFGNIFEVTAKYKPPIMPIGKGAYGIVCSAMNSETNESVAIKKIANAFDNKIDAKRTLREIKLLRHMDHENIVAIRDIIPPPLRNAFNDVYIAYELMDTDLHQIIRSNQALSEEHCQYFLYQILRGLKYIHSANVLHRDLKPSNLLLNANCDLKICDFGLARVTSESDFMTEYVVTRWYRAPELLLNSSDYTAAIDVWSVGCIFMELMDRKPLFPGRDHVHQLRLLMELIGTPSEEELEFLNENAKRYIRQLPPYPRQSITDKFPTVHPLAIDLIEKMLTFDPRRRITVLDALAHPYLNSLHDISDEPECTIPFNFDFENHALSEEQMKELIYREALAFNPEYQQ

Assays:
[1] = target: T1, IAA8-NLuc (Arabidopsis thaliana) (UniProt Q38826); test: split reporter; luciferase complementation imaging (LCI) in N. benthamiana leaves co-infiltrated with NLuc and CLuc fusions, imaged 3 d after infiltration, 100 μM D-luciferin
T1 sequence: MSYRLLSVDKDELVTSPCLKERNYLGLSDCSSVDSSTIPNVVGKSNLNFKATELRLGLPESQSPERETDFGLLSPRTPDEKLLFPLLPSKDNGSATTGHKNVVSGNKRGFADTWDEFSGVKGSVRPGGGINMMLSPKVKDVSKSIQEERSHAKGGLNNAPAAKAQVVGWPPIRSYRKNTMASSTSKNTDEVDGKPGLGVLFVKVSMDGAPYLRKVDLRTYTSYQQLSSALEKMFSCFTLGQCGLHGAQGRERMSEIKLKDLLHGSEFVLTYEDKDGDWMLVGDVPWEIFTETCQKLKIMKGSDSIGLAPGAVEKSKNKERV

[2] = target: T2, CLuc-TIR1 (Arabidopsis thaliana) (UniProt Q570C0); test: split reporter; luciferase complementation imaging (LCI) in N. benthamiana leaves, IAA8 variants-NLuc with CLuc-TIR1, with or without auxin
T2 sequence: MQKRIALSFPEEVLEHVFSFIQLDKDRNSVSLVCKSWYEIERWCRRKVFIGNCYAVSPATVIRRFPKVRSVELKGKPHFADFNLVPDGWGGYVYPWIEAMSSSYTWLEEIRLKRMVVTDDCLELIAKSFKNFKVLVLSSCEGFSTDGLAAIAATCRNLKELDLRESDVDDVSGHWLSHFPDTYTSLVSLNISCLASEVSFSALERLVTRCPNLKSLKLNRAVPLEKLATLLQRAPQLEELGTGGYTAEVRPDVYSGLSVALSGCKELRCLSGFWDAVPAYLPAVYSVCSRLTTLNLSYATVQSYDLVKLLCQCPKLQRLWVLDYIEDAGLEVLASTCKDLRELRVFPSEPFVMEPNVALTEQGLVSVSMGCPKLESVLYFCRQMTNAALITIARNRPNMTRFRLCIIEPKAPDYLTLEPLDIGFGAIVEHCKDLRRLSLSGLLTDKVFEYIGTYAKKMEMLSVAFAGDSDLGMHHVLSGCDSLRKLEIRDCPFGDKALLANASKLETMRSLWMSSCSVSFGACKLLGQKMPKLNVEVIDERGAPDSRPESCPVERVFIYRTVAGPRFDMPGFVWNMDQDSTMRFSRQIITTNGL

[3] = target: BD-MPK6 (Arabidopsis thaliana) (UniProt Q39026); test: two-hybrid; IAA8 in pGAD424 (AD), MPKs in pAS2-1 (BD), yeast strain pJ69-4A; growth on SD -Leu/-Trp/-His and X-gal assay for β-galactosidase
[4] = target: T3, BD-MPK3 (Arabidopsis thaliana) (UniProt Q39023); test: as above
T3 sequence: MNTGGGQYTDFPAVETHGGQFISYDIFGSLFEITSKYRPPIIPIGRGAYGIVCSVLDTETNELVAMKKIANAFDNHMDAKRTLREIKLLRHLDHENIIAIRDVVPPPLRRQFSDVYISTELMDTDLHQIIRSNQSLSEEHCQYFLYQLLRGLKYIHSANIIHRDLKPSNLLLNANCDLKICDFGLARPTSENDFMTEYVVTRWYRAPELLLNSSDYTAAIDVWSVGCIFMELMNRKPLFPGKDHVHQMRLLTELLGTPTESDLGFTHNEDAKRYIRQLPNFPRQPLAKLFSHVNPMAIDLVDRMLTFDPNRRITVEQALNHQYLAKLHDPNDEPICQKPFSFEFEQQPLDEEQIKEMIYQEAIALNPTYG

SGT1a-NLuc = target: T4, SGT1a-NLuc (UniProt Q9SUR9); test: split reporter; luciferase complementation imaging (LCI) in N. benthamiana leaves co-infiltrated with NLuc and CLuc fusions, imaged 3 d after infiltration, 100 μM D-luciferin
T4 sequence: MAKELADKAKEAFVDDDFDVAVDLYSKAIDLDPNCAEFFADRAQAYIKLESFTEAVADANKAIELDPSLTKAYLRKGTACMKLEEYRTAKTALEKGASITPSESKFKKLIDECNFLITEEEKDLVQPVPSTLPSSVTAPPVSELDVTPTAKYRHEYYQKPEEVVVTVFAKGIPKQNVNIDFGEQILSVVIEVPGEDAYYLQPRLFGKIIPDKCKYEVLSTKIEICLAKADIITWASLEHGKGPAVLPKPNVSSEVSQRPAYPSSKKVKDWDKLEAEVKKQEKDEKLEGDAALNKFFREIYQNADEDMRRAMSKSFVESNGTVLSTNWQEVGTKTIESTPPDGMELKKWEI

Molecule: CLuc-MPK6 (from UniProt Q39026 1-395) (enzyme)
binding [1]: binds

B2: AD-IAA8 (protein, UniProt Q38826 1-321)
chain: MSYRLLSVDKDELVTSPCLKERNYLGLSDCSSVDSSTIPNVVGKSNLNFKATELRLGLPESQSPERETDFGLLSPRTPDEKLLFPLLPSKDNGSATTGHKNVVSGNKRGFADTWDEFSGVKGSVRPGGGINMMLSPKVKDVSKSIQEERSHAKGGLNNAPAAKAQVVGWPPIRSYRKNTMASSTSKNTDEVDGKPGLGVLFVKVSMDGAPYLRKVDLRTYTSYQQLSSALEKMFSCFTLGQCGLHGAQGRERMSEIKLKDLLHGSEFVLTYEDKDGDWMLVGDVPWEIFTETCQKLKIMKGSDSIGLAPGAVEKSKNKERV
binding [3]: binds
binding [4]: binds

B5: CLuc-RAR1 (protein, UniProt Q9SE33 1-226)
chain: MEVGSATKKLQCQRIGCNAMFTDDDNPQGSCQFHASGPFFHDGMKEWSCCKQRSHDFSLFLEIPGCKTGKHTTEKPVLAKSVPKHPVAAPTSSPDANAATKDSCSRCRQGFFCSDHGSQPKEQIKQTLNTPGQAEEEKIEPLAPPVQKAVIDINQPQVCKNKGCGQTFKERDNHETACSHHPGPAVFHDRLRGWKCCDVHVKEFDEFMEIPPCTKGWHSSSPDPAV
binding (SGT1a-NLuc): binds

B6: CLuc-MPK3 (enzyme, UniProt Q39023 1-370)
chain: MNTGGGQYTDFPAVETHGGQFISYDIFGSLFEITSKYRPPIIPIGRGAYGIVCSVLDTETNELVAMKKIANAFDNHMDAKRTLREIKLLRHLDHENIIAIRDVVPPPLRRQFSDVYISTELMDTDLHQIIRSNQSLSEEHCQYFLYQLLRGLKYIHSANIIHRDLKPSNLLLNANCDLKICDFGLARPTSENDFMTEYVVTRWYRAPELLLNSSDYTAAIDVWSVGCIFMELMNRKPLFPGKDHVHQMRLLTELLGTPTESDLGFTHNEDAKRYIRQLPNFPRQPLAKLFSHVNPMAIDLVDRMLTFDPNRRITVEQALNHQYLAKLHDPNDEPICQKPFSFEFEQQPLDEEQIKEMIYQEAIALNPTYG
binding [1]: binds

Continued, values first:

binding [2]: binds
B1: IAA8-NLuc (protein, UniProt Q38826 1-321)
chain: MSYRLLSVDKDELVTSPCLKERNYLGLSDCSSVDSSTIPNVVGKSNLNFKATELRLGLPESQSPERETDFGLLSPRTPDEKLLFPLLPSKDNGSATTGHKNVVSGNKRGFADTWDEFSGVKGSVRPGGGINMMLSPKVKDVSKSIQEERSHAKGGLNNAPAAKAQVVGWPPIRSYRKNTMASSTSKNTDEVDGKPGLGVLFVKVSMDGAPYLRKVDLRTYTSYQQLSSALEKMFSCFTLGQCGLHGAQGRERMSEIKLKDLLHGSEFVLTYEDKDGDWMLVGDVPWEIFTETCQKLKIMKGSDSIGLAPGAVEKSKNKERV

binding [2]: binds
B3: IAA8^AAA-NLuc (protein, UniProt Q38826 1-321)
chain: MSYRLLSVDKDELVTSPCLKERNYLGLSDCSSVDSSTIPNVVGKSNLNFKATELRLGLPESQSPERETDFGLLAPRAPDEKLLFPLLPSKDNGSATTGHKNVVSGNKRGFADTWDEFSGVKGSVRPGGGINMMLAPKVKDVSKSIQEERSHAKGGLNNAPAAKAQVVGWPPIRSYRKNTMASSTSKNTDEVDGKPGLGVLFVKVSMDGAPYLRKVDLRTYTSYQQLSSALEKMFSCFTLGQCGLHGAQGRERMSEIKLKDLLHGSEFVLTYEDKDGDWMLVGDVPWEIFTETCQKLKIMKGSDSIGLAPGAVEKSKNKERV

binding [2]: binds
B4: IAA8^DDD-NLuc (protein, UniProt Q38826 1-321)
chain: MSYRLLSVDKDELVTSPCLKERNYLGLSDCSSVDSSTIPNVVGKSNLNFKATELRLGLPESQSPERETDFGLLDPRDPDEKLLFPLLPSKDNGSATTGHKNVVSGNKRGFADTWDEFSGVKGSVRPGGGINMMLDPKVKDVSKSIQEERSHAKGGLNNAPAAKAQVVGWPPIRSYRKNTMASSTSKNTDEVDGKPGLGVLFVKVSMDGAPYLRKVDLRTYTSYQQLSSALEKMFSCFTLGQCGLHGAQGRERMSEIKLKDLLHGSEFVLTYEDKDGDWMLVGDVPWEIFTETCQKLKIMKGSDSIGLAPGAVEKSKNKERV
